Test results: the supplement of paper PMC10849652
The list shows a part of the results.

Amino acid sequences for entries named in this document (tags omitted). A change or cut given only in a name is not applied to a line headed by its entry.
UniProt P35637: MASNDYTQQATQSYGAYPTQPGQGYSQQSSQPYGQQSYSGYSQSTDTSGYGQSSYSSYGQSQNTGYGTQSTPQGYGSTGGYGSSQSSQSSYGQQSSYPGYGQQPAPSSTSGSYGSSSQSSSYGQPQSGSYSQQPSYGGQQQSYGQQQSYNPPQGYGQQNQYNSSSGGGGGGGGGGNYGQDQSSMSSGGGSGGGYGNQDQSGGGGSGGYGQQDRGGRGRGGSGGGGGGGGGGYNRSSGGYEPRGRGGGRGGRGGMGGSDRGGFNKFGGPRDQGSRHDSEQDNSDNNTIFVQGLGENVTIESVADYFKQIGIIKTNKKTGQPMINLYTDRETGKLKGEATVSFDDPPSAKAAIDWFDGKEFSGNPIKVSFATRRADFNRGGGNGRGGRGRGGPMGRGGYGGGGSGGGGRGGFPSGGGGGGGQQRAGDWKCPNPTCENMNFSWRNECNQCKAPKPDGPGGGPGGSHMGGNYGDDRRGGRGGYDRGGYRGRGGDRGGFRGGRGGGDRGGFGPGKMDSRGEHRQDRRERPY
UniProt Q06546: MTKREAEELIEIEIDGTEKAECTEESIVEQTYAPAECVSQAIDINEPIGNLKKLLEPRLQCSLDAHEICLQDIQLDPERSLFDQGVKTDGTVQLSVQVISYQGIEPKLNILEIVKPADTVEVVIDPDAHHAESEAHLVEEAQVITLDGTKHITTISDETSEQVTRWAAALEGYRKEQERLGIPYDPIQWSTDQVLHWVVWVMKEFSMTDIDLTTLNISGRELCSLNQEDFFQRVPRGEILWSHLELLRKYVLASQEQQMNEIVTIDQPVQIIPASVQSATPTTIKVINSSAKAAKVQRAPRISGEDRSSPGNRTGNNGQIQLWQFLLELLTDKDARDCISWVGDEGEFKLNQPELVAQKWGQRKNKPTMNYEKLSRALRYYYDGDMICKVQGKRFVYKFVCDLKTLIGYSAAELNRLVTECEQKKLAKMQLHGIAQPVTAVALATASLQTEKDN
UniProt Q9UJY4: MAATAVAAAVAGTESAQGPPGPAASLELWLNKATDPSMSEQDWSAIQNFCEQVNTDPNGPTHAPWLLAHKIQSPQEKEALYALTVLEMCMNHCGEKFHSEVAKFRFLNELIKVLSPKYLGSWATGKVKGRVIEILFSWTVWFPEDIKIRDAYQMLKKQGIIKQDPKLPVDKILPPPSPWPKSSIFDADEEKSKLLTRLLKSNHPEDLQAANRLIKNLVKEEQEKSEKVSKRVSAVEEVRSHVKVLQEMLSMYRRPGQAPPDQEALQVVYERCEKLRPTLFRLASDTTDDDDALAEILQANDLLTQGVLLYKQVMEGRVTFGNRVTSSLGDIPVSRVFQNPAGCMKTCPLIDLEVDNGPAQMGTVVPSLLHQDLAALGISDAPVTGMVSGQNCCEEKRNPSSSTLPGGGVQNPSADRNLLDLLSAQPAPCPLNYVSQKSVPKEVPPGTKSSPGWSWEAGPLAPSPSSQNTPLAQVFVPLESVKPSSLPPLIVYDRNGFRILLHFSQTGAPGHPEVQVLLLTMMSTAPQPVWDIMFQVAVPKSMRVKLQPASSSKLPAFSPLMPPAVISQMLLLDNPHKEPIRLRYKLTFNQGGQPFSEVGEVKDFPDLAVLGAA
UniProt Q9NWZ8: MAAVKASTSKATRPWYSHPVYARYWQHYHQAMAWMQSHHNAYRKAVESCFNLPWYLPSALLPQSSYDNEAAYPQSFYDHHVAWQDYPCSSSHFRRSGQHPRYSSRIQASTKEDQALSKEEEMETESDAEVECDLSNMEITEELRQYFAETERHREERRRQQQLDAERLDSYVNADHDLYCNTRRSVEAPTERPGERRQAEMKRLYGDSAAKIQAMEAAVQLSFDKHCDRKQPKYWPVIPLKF
UniProt P02794, whole entry, looked up: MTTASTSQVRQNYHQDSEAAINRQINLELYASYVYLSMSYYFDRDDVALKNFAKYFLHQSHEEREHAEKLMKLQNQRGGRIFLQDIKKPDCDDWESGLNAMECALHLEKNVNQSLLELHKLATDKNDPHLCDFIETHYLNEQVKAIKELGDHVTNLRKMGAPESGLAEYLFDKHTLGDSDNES
UniProt Q14C86: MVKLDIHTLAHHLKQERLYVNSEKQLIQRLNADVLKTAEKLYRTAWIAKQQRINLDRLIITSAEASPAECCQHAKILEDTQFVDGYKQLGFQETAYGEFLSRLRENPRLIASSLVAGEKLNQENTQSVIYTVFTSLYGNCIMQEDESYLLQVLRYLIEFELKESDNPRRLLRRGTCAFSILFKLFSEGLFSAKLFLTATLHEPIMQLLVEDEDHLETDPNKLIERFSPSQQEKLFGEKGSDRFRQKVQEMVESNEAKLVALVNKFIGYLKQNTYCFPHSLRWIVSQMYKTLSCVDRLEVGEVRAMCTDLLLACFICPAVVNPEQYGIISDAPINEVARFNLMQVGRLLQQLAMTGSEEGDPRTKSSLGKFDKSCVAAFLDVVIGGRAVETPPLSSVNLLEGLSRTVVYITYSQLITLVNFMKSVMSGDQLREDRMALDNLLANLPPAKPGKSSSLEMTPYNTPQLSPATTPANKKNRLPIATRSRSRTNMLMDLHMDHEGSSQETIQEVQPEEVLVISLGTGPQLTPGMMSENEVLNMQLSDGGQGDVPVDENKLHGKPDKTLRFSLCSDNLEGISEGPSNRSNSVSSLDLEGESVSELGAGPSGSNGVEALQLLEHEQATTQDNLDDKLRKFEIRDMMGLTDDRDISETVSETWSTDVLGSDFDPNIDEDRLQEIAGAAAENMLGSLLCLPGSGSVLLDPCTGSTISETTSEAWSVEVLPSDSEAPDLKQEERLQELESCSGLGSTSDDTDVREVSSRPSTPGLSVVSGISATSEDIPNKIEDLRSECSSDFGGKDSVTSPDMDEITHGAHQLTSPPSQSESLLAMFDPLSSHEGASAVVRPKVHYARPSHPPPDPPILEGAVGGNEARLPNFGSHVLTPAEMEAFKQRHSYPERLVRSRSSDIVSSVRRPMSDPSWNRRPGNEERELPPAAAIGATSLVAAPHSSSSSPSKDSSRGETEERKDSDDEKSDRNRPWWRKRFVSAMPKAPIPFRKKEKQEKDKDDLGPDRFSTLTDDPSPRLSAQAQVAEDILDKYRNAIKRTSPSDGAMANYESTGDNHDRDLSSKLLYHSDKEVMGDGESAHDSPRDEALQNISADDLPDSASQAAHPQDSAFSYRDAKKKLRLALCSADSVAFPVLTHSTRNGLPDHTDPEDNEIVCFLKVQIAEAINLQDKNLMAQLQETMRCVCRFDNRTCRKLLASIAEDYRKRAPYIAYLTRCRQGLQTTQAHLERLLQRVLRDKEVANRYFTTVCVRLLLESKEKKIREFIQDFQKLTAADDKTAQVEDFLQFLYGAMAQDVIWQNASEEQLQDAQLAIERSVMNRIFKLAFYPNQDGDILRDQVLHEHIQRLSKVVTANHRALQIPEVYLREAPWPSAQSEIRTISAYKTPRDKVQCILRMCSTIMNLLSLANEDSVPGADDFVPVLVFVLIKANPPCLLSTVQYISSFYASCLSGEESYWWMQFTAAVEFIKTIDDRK
UniProt Q9NY12: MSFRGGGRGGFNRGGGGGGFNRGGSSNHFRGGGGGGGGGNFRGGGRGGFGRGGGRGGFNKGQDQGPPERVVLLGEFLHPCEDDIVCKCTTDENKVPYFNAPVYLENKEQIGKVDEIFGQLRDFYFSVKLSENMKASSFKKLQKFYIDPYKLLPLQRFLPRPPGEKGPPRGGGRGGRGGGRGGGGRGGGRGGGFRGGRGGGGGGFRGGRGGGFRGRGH
UniProt Q96AE4: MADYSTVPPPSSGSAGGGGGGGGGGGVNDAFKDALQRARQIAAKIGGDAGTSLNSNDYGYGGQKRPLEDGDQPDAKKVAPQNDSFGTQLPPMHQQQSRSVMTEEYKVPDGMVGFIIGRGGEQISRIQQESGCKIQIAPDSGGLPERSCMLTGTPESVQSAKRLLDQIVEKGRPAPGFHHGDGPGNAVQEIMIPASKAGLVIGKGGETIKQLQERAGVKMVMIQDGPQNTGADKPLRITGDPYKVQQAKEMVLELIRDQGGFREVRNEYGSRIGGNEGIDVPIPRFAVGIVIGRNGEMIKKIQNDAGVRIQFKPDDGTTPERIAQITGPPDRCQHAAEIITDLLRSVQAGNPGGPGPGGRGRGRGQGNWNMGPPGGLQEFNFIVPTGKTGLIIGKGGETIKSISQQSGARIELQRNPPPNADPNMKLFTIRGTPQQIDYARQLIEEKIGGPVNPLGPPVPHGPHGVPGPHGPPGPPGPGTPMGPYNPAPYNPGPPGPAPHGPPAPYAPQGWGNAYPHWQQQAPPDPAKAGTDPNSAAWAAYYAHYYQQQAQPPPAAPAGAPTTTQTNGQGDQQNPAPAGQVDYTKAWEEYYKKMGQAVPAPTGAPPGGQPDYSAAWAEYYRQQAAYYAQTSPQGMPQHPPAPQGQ
UniProt P48507: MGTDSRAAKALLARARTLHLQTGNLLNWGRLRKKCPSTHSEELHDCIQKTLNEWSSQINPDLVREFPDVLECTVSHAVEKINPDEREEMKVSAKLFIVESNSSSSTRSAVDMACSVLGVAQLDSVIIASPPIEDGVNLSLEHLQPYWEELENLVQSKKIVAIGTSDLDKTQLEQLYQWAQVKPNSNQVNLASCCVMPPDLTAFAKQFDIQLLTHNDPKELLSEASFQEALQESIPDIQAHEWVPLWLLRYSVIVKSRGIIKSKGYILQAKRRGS
UniProt P50395: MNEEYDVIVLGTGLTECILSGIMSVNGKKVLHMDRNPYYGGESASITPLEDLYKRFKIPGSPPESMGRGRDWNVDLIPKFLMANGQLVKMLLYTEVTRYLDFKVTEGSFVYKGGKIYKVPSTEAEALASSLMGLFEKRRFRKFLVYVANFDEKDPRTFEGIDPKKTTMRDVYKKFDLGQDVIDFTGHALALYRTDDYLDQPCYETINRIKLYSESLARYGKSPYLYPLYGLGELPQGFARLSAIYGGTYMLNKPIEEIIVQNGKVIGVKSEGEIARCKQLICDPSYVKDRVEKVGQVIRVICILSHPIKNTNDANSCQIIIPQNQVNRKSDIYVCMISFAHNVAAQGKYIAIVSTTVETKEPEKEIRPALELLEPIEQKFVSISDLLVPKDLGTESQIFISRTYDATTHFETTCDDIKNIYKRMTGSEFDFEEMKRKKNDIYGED
UniProt P51114, whole entry, looked up: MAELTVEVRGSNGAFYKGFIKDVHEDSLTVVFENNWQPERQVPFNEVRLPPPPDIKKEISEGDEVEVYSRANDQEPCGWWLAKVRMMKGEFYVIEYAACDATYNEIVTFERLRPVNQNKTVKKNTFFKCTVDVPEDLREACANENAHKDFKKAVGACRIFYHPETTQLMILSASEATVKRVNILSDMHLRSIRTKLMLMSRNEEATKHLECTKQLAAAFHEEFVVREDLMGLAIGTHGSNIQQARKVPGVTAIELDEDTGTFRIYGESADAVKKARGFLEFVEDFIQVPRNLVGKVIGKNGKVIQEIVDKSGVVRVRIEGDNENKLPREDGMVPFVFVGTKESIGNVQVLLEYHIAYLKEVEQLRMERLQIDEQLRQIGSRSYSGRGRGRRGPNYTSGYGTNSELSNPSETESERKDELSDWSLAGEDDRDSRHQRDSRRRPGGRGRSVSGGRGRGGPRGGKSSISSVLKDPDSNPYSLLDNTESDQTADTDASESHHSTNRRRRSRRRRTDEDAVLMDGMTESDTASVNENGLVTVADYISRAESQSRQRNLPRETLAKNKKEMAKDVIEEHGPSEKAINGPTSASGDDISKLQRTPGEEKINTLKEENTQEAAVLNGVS
UniProt P60520, whole entry, looked up: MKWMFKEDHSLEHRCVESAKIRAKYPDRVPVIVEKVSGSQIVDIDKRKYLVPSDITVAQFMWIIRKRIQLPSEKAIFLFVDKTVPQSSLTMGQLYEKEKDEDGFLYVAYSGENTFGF

Assays:
Assay in all cases: log2 fold change, soluble protein after heating vs DMSO (PISA); higher = thermal stabilisation; K562 lysate, 10 uM; active = over 0.2 and 3.5 SD of the protein, either way, in both replicates (recomputed)
erlotinib = compound: C#Cc1cccc(Nc2ncnc3cc(OCCOC)c(OCCOC)cc23)c1 [erlotinib]
Summary of the method: (§1)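 Soluble protein was defined as the supernatant remaining after 21,000xg for 90 min, following pooling of heated aliquots and adjustment to 0.5% NP-40 at 4°C. Before that, crude K562 extract at 1 mg/mL protein in PBS pH 7.4 with 1 mM MgCl2 was treated with 10 μM compound for 30 min and heated for 3 min across 48°C-58°C. Quantification used TMTpro 16plex LC-MS/MS with channel sums equalised, and values are log-two fold changes in thermal stability relative to solvent controls from duplicates.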

[1] = compound: C/C(=N\NC(=O)C1=CC(=CC=C1)S(=O)(=O)N2CCOCC2)/C3=C(C=CC(=C3)Cl)O
Summary of the method: as §1

[2] = compound: C1=CC(=CC=C1C2=NC3=C(N2)C=C(C=C3)C(=O)N)OC4=CC=C(C=C4)Cl
Summary of the method: as §1

[3] = compound: C1=CC2=C(C=CC(=C2)/C=C\3/C(=O)NC(=NCC4=CC=CS4)S3)N=C1
Summary of the method: as §1

[4] = compound: C1=CC2=NC=CN=C2C=C1/C=C/3\C(=O)NC(=O)S3
Summary of the method: as §1

[5] = compound: C1=CC=C(C=C1)C2=NC(=C(N2)C3=CC=NC=C3)C4=CC(=C(C=C4)Cl)O
Summary of the method: as §1

[6] = compound: C1=CC=C2C(=C1)C3=NNC4=CC=CC(=C43)C2=O
Summary of the method: as §1

[7] = compound: C1CCN(C1)C(=O)NC2=CC=CC(=C2)NC3=NC=C(C(=N3)NCCC4=CN=CN4)Br
Summary of the method: as §1

[8] = compound: C1CN(CCC1(CC2=CC=C(C=C2)Cl)N)C3=NC=NC4=C3C=CN4
Summary of the method: as §1

IRAK-1-4 Inhibitor I = compound: C1COCCN1CCN2C3=CC=CC=C3N=C2NC(=O)C4=CC(=CC=C4)[N+](=O)[O-] [IRAK-1-4 Inhibitor I]
Summary of the method: as §1

ibrutinib = compound: C=CC(=O)N1CCC[C@@H](n2nc(-c3ccc(Oc4ccccc4)cc3)c3c(N)ncnc32)C1 [ibrutinib]
Summary of the method: as §1

[9] = compound: CC(=O)c1cnc2ccc(-c3cc(Cl)c(O)c(Cl)c3)nc2c1N[C@H]1CC[C@H](CN(C)C)CC1
Summary of the method: as §1

ralimetinib = compound: CC(C)(C)Cn1c(N)nc2ccc(-c3[nH]c(C(C)(C)C)nc3-c3ccc(F)cc3)nc21 [ralimetinib]
Summary of the method: as §1

[10] = compound: CC(C)(O)CC(=O)NCCn1ccc2ncnc(Nc3ccc(Oc4cccc(C(F)(F)F)c4)c(Cl)c3)c21
Summary of the method: as §1

[11] = compound: CC(C)C1=C2N=C(C=C(N2N=C1)NCC3=CC=CC=C3)NCCCCCCN
Summary of the method: as §1

[12] = compound: CC1=C(C(CC(=O)N1)C2=CC=C(C=C2)C(F)(F)F)C(=O)NC3=C(C=C4C(=C3)C=NN4)F
Summary of the method: as §1

[13] = compound: CC1=C(C2=C(C=C1)C(=O)C3=CC=CC=C3N2CCCN)C
Summary of the method: as §1

[14] = compound: CC1=C(C=C(C=C1)NC(=O)C2=CC(=CC=C2)C(C)(C)C#N)NC3=CC4=C(C=C3)N=CN(C4=O)C
Summary of the method: as §1

[15] = compound: CC1=C(C=C(C=C1)NC(=O)C2=CC(=CC=C2)N(C)C)NC(=O)C3=CC=C(C=C3)O
Summary of the method: as §1

[16] = compound: CC1=CC=C(C=C1)SC2=C3C=C(SC3=CN=C2)C(=O)N
Summary of the method: as §1

Measured: log2 fold change

FUS (UniProt P35637)
inactive: erlotinib -0.009 | [1] 0.001 | [2] -0.006 | [3] -0.007 | [4] -0.017 | [5] 0.005 | [6] 0.072 | [7] 0 | [8] 0.017 | IRAK-1-4 Inhibitor I 0.002 | ibrutinib 0 | [9] -0.065 | ralimetinib -0.041 | [10] 0.005 | [11] 0.032 | [12] -0.008 | [13] -0.011 | [14] -0.014 | [15] -0.011 | [16] 0.023

GABPA (UniProt Q06546)
inactive: erlotinib 0.008 | [1] -0.054 | [2] -0.018 | [3] -0.008 | [4] 0.009 | [5] -0.007 | [6] 0.014 | [7] -0.012 | [8] -0.021 | IRAK-1-4 Inhibitor I 0.009 | ibrutinib -0.004 | [9] 0.008 | ralimetinib 0.041 | [10] -0.017 | [11] -0.007 | [12] -0.008 | [13] 0.025 | [14] 0.028 | [15] 0 | [16] 0.017

GGA2 (UniProt Q9UJY4)
inactive: erlotinib -0.014 | [1] 0.042 | [2] 0.064 | [3] 0.016 | [4] 0.019 | [5] 0.014 | [6] -0.054 | [7] 0.074 | [8] 0.034 | IRAK-1-4 Inhibitor I 0.01 | ibrutinib -0.007 | [9] 0 | ralimetinib 0.026 | [10] -0.01 | [11] -0.062 | [12] 0.099 | [13] 0.01 | [14] -0.024 | [15] 0.031 | [16] -0.021

GEMIN8 (UniProt Q9NWZ8)
inactive: erlotinib 0.004 | [1] 0.003 | [2] -0.004 | [3] 0.054 | [4] -0.003 | [5] -0.006 | [6] -0.006 | [7] -0.028 | [8] 0.395 | IRAK-1-4 Inhibitor I 0.046 | ibrutinib 0.056 | [9] -0.001 | ralimetinib -0.063 | [10] 0.048 | [11] -0.071 | [12] -0.048 | [14] 0.006 | [15] -0.036 | [16] 0.032

FTH1 (UniProt P02794)
inactive: erlotinib -0.006 | [1] -0.066 | [2] -0.038 | [3] 0.041 | [4] -0.023 | [5] 0.002 | [6] 0.013 | [7] 0.032 | [8] 0.023 | IRAK-1-4 Inhibitor I -0.045 | ibrutinib 0.099 | [9] -0.035 | ralimetinib 0.001 | [10] -0.002 | [11] 0.004 | [12] -0.019 | [13] -0.015 | [14] 0.016 | [15] 0.071 | [16] 0.007

GAPVD1 isoform 6 (UniProt Q14C86)
inactive: erlotinib 0.01 | [1] 0 | [2] -0.051 | [3] 0.01 | [4] 0.019 | [5] 0 | [6] -0.013 | [7] 0.007 | [8] -0.025 | IRAK-1-4 Inhibitor I -0.015 | ibrutinib 0.005 | [9] 0.003 | ralimetinib 0.031 | [10] -0.004 | [11] -0.018 | [12] 0.028 | [13] 0.008 | [14] 0.003 | [15] 0.011 | [16] 0.018

GAR1 (UniProt Q9NY12)
inactive: erlotinib 0.02 | [1] -0.05 | [2] 0 | [3] -0.014 | [4] 0.034 | [5] 0.038 | [6] -0.014 | [7] -0.001 | [8] -0.011 | IRAK-1-4 Inhibitor I 0.006 | ibrutinib 0 | [9] -0.006 | ralimetinib -0.015 | [10] -0.043 | [11] 0.012 | [12] 0.016 | [13] -0.031 | [14] 0.004 | [15] 0.014 | [16] 0.019

GEMIN5 (UniProt Q8TEQ6)
inactive: erlotinib -0.001 | [1] 0.004 | [2] -0.012 | [3] 0.015 | [4] 0.032 | [5] -0.006 | [6] -0.034 | [7] 0 | [8] -0.006 | IRAK-1-4 Inhibitor I -0.025 | ibrutinib 0.012 | [9] -0.01 | ralimetinib 0.03 | [10] -0.001 | [11] 0.016 | [12] -0.02 | [13] -0.026 | [14] 0.005 | [15] 0.014 | [16] 0.007

FUBP1 isoform 2 (UniProt Q96AE4)
inactive: erlotinib -0.012 | [1] 0.02 | [2] 0.024 | [3] -0.008 | [4] 0.007 | [5] -0.002 | [6] 0.006 | [7] 0.023 | [8] 0.018 | IRAK-1-4 Inhibitor I 0.023 | ibrutinib 0.015 | [9] -0.002 | ralimetinib -0.016 | [10] -0.038 | [11] 0.011 | [12] -0.022 | [13] -0.003 | [14] -0.012 | [15] -0.013 | [16] -0.028

GCLM (UniProt P48507)
inactive: erlotinib -0.012 | [1] 0.021 | [2] 0.006 | [3] 0.007 | [4] 0.023 | [5] -0.001 | [6] -0.034 | [7] 0.014 | [8] 0.039 | IRAK-1-4 Inhibitor I 0.016 | ibrutinib 0.006 | [9] -0.009 | ralimetinib 0.01 | [10] -0.047 | [11] -0.028 | [12] 0.006 | [13] -0.007 | [14] 0.024 | [15] -0.026 | [16] -0.006

FRG1 (UniProt Q14331)
inactive: erlotinib 0.006 | [1] 0.004 | [2] -0.039 | [3] 0.025 | [4] -0.049 | [5] -0.032 | [6] -0.039 | [7] -0.061 | [8] -0.016 | IRAK-1-4 Inhibitor I -0.06 | ibrutinib 0.011 | [9] -0.007 | ralimetinib -0.027 | [10] -0.023 | [11] 0.042 | [12] 0.004 | [13] -0.005 | [14] -0.031 | [15] 0.025 | [16] 0.024

GDI2 (UniProt P50395)
inactive: erlotinib -0.009 | [1] 0.038 | [2] -0.004 | [3] 0 | [4] -0.006 | [5] 0 | [6] -0.017 | [7] -0.008 | [8] 0.022 | IRAK-1-4 Inhibitor I 0 | ibrutinib -0.028 | [9] 0.001 | ralimetinib -0.018 | [10] 0.005 | [11] -0.005 | [12] -0.026 | [13] 0.008 | [14] -0.013 | [15] -0.009 | [16] 0.005

FXR1 (UniProt P51114)
inactive: erlotinib 0.041 | [1] 0.012 | [2] -0.039 | [3] -0.011 | [4] -0.024 | [5] 0.002 | [6] -0.082 | [7] -0.015 | [8] -0.008 | IRAK-1-4 Inhibitor I -0.057 | ibrutinib 0.023 | [9] -0.011 | ralimetinib -0.017 | [10] 0.032 | [11] 0.002 | [12] 0.014 | [13] -0.006 | [14] -0.01 | [15] 0.02 | [16] 0.016

GABARAPL2 (UniProt P60520)
inactive: erlotinib -0.003 | [1] -0.206 | [2] 0.003 | [3] -0.025 | [4] -0.004 | [5] -0.003 | [6] -0.003 | [7] -0.026 | [8] -0.034 | IRAK-1-4 Inhibitor I 0.003 | ibrutinib -0.025 | [9] 0.009 | ralimetinib -0.063 | [10] -0.018 | [11] -0.019 | [12] -0.034 | [13] -0.021 | [14] -0.04 | [15] -0.054 | [16] 0.014

GADD45GIP1 (UniProt Q8TAE8)
inactive: erlotinib -0.006 | [1] -0.006 | [2] -0.004 | [3] 0.002 | [4] 0.01 | [5] -0.001 | [6] -0.101 | [7] -0.014 | [8] 0.057 | IRAK-1-4 Inhibitor I -0.025 | ibrutinib 0.024 | [9] -0.009 | ralimetinib 0.013 | [10] 0.004 | [11] -0.013 | [12] 0.044 | [13] -0.094 | [14] 0.018 | [15] -0.029 | [16] 0.049
